We go through four molecules from article PMC4041463.

By UniProt entry, the sequences of proteins in these tests, tags left out.
UniProt Q14980: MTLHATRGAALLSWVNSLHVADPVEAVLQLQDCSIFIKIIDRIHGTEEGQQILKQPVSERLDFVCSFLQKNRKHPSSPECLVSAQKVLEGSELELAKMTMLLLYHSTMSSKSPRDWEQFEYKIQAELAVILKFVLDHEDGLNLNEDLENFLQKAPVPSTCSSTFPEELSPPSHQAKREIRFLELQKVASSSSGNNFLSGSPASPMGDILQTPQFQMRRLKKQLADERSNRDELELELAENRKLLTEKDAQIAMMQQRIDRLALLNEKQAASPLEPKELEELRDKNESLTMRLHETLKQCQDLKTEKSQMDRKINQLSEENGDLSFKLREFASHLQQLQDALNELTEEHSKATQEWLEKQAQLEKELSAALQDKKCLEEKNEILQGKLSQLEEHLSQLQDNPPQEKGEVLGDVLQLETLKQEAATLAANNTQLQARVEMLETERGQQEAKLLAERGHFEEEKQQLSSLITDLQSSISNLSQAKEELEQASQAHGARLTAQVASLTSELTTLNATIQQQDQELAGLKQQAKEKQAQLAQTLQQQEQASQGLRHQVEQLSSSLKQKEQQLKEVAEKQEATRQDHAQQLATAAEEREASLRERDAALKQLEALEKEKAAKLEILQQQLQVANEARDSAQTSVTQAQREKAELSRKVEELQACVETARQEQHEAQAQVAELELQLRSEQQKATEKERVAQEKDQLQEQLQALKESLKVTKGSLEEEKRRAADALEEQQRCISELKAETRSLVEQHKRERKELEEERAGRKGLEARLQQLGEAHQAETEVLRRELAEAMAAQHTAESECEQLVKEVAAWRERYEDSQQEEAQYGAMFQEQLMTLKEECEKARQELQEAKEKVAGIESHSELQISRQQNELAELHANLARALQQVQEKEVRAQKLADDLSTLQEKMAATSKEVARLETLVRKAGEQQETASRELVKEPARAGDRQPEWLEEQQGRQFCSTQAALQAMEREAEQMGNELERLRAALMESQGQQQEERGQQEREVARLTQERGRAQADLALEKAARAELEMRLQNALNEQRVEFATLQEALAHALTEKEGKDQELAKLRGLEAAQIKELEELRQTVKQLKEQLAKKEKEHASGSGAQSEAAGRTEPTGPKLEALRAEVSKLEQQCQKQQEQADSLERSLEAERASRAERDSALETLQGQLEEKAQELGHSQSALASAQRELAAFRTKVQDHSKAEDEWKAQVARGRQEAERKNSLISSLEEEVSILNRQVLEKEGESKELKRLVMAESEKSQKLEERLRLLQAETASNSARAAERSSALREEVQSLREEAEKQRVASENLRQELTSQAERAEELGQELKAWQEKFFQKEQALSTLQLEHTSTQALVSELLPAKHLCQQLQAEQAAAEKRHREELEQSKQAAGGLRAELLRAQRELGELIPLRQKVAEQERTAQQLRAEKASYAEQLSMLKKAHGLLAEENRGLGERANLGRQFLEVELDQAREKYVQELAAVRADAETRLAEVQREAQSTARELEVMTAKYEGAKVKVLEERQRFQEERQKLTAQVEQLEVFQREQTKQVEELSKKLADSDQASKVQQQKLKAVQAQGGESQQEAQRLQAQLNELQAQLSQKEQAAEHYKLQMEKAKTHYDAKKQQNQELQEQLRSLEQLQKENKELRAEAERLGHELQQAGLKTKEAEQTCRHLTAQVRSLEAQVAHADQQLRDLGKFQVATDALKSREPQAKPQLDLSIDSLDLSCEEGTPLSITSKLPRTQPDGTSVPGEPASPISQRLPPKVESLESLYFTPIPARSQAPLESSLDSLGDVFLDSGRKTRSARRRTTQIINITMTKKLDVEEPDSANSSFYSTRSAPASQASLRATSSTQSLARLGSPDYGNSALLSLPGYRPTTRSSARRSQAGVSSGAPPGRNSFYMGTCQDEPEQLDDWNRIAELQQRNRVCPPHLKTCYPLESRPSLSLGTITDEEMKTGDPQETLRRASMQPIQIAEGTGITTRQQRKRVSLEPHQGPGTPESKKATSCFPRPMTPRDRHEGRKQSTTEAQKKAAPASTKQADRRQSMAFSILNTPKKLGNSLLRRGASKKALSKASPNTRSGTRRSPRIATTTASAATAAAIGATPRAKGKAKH
UniProt O60264: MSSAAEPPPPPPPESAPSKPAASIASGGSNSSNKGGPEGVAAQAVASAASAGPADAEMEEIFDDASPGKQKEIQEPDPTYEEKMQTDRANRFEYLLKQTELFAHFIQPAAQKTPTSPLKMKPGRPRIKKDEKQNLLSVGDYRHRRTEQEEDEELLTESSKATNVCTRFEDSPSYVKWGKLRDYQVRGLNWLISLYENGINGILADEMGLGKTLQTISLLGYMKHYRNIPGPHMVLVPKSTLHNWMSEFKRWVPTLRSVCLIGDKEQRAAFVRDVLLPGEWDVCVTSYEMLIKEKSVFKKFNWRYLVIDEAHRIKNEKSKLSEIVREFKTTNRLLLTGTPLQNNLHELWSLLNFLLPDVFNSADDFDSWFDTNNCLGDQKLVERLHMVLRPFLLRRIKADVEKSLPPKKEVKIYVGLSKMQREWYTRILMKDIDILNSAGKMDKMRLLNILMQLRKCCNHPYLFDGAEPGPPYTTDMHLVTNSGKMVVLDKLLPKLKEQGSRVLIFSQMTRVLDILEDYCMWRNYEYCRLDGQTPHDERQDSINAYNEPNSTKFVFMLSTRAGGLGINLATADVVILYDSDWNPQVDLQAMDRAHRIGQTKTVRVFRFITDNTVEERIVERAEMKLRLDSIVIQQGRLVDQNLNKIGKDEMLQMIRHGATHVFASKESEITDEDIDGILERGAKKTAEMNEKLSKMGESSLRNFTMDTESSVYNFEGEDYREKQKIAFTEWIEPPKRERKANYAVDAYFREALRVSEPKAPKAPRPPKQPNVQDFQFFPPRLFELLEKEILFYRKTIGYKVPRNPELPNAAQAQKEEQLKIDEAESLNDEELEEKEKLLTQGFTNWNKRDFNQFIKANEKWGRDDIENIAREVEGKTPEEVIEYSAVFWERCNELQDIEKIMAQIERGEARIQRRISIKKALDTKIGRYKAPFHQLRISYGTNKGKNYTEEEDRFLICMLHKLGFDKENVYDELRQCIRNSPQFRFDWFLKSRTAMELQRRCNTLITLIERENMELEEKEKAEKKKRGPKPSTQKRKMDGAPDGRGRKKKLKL
UniProt P51532: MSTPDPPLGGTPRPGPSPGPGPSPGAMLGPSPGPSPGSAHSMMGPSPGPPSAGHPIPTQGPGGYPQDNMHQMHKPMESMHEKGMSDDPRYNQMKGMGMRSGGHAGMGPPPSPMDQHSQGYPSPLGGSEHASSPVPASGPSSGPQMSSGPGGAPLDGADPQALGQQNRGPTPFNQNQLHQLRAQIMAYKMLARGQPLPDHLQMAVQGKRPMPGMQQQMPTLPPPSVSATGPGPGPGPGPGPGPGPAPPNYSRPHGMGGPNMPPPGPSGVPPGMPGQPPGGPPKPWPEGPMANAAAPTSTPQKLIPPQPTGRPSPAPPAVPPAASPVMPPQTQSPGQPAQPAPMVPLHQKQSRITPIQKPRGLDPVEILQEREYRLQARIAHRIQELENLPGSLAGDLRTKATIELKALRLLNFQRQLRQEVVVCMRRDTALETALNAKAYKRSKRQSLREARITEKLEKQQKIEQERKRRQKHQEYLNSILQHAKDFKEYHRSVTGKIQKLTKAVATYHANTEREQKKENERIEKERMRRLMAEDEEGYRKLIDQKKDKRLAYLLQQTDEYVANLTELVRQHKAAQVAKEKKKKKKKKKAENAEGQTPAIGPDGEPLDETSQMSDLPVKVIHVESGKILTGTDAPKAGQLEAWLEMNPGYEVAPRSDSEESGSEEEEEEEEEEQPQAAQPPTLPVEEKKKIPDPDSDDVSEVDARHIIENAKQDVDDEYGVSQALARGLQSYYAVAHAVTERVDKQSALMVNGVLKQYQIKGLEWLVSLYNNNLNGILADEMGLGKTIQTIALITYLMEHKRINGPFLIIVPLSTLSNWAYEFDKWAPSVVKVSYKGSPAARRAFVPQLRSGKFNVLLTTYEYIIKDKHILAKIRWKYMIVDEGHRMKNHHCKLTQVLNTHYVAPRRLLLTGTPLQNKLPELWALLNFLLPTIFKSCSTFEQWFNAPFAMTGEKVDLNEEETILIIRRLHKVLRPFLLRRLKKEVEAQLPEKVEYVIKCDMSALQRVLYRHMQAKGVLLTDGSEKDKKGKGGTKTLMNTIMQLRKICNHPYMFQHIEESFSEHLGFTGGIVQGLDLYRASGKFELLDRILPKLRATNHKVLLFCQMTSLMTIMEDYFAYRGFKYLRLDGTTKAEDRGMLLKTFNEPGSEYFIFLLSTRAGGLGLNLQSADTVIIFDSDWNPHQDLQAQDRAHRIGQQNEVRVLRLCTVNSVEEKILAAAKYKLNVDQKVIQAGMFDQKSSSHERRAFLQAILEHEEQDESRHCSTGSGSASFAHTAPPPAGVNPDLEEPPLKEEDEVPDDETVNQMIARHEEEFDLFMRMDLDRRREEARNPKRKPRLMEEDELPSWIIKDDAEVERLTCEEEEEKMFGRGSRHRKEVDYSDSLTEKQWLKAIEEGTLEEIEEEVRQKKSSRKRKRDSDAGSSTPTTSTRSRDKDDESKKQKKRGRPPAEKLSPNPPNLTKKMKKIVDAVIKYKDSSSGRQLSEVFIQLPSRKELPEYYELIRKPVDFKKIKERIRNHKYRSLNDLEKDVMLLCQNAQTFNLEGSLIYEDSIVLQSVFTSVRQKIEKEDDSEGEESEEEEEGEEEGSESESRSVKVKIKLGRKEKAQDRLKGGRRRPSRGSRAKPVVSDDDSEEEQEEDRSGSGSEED

No constants are given. Whether binding was seen depends on the method and setting. In cells and extracts the contact can be indirect. Some results given as binding are weak or reduced against the parent protein; the word gives no strength.

The target of assay [1] is nuclear mitotic apparatus protein (NuMA) (human (endogenous in HMT-3522 S1, T4-2 and U2OS)) (UniProt Q14980). The assay is described as follows: co-IP; nuclear extracts (1 mg) of non-neoplastic HMT-3522 S1 and malignant T4-2 cells incubated with NuMA or SNF2h antibodies overnight at 4°C, Universal Magnetic Co-IP kit, western blot; T4-2 cells mock irradiated or exposed to 3 Gy and left 30 min (SNF2h in the NuMA IP increased by 2-fold after irradiation).

For assay [2] the target is unchanged. The assay is described as follows: FRET or BRET; fluorescence lifetime imaging of fixed U2OS cells, nonirradiated or irradiated (10 Gy); SNF2h antibodies with Alexa Fluor 488 (donor), NuMA antibodies with Alexa Fluor 555 (acceptor). A general note: In BRET a luciferase serves as donor, and the signal depends on an acceptor being close.
In assay [3] the target is ISWI ATPase SNF2h/SMARCA5 (human (endogenous in HMT-3522 S1, T4-2 and U2OS)) (UniProt O60264). The assay can be described thus: co-IP; nuclear extracts (1 mg) of non-neoplastic HMT-3522 S1 and malignant T4-2 cells incubated with NuMA or SNF2h antibodies overnight at 4°C, Universal Magnetic Co-IP kit, western blot; T4-2 cells mock irradiated or exposed to 3 Gy and left 30 min (SNF2h in the NuMA IP increased by 2-fold after irradiation).

Take “ISWI ATPase SNF2h/SMARCA5 (from UniProt O60264 1-1052)”: the binding entry in assay [1] and in assay [2] was “binds” in each case.
As for “SWI/SNF family BRG1 ATPase (from UniProt P51532 1-1647)”, the binding result in assay [1] was “no binding”.
For “nuclear mitotic apparatus protein (NuMA) (from UniProt Q14980 1-2115)”, the binding result in assay [3] is on record as “binds”.

B1: Williams Syndrome Transcription Factor (WSTF) (protein, UniProt Q9UIG0 1-1483)
chain: MAPLLGRKPFPLVKPLPGEEPLFTIPHTQEAFRTREEYEARLERYSERIWTCKSTGSSQLTHKEAWEEEQEVAELLKEEFPAWYEKLVLEMVHHNTASLEKLVDTAWLEIMTKYAVGEECDFEVGKEKMLKVKIVKIHPLEKVDEEATEKKSDGACDSPSSDKENSSQIAQDHQKKETVVKEDEGRRESINDRARRSPRKLPTSLKKGERKWAPPKFLPHKYDVKLQNEDKIISNVPADSLIRTERPPNKEIVRYFIRHNALRAGTGENAPWVVEDELVKKYSLPSKFSDFLLDPYKYMTLNPSTKRKNTGSPDRKPSKKSKTDNSSLSSPLNPKLWCHVHLKKSLSGSPLKVKNSKNSKSPEEHLEEMMKMMSPNKLHTNFHIPKKGPPAKKPGKHSDKPLKAKGRSKGILNGQKSTGNSKSPKKGLKTPKTKMKQMTLLDMAKGTQKMTRAPRNSGGTPRTSSKPHKHLPPAALHLIAYYKENKDREDKRSALSCVISKTARLLSSEDRARLPEELRSLVQKRYELLEHKKRWASMSEEQRKEYLKKKREELKKKLKEKAKERREKEMLERLEKQKRYEDQELTGKNLPAFRLVDTPEGLPNTLFGDVAMVVEFLSCYSGLLLPDAQYPITAVSLMEALSADKGGFLYLNRVLVILLQTLLQDEIAEDYGELGMKLSEIPLTLHSVSELVRLCLRRSDVQEESEGSDTDDNKDSAAFEDNEVQDEFLEKLETSEFFELTSEEKLQILTALCHRILMTYSVQDHMETRQQMSAELWKERLAVLKEENDKKRAEKQKRKEMEAKNKENGKVENGLGKTDRKKEIVKFEPQVDTEAEDMISAVKSRRLLAIQAKKEREIQEREMKVKLERQAEEERIRKHKAAAEKAFQEGIAKAKLVMRRTPIGTDRNHNRYWLFSDEVPGLFIEKGWVHDSIDYRFNHHCKDHTVSGDEDYCPRSKKANLGKNASMNTQHGTATEVAVETTTPKQGQNLWFLCDSQKELDELLNCLHPQGIRESQLKERLEKRYQDIIHSIHLARKPNLGLKSCDGNQELLNFLRSDLIEVATRLQKGGLGYVEETSEFEARVISLEKLKDFGECVIALQASVIKKFLQGFMAPKQKRRKLQSEDSAKTEEVDEEKKMVEEAKVASALEKWKTAIREAQTFSRMHVLLGMLDACIKWDMSAENARCKVCRKKGEDDKLILCDECNKAFHLFCLRPALYEVPDGEWQCPACQPATARRNSRGRNYTEESASEDSEDDESDEEEEEEEEEEEEEDYEVAGLRLRPRKTIRGKHSVIPPAARSGRRPGKKPHSTRRSQPKAPPVDDAEVDELVLQTKRSSRRQSLELQKCEEILHKIVKYRFSWPFREPVTRDEAEDYYDVITHPMDFQTVQNKCSCGSYRSVQEFLTDMKQVFTNAEVYNCRGSHVLSCMVKTEQCLVALLHKHLPGHPYVRRKRKKFPDRLAEDEGDSEPEAVGQSRGRRQKK
For B1, in assay [1], the binding entry is “binds”.
